Laboratory results: PubChem BioAssay AID493246 (Drosophila RNAi Screening Center, 2011)
The deposit covers about 21,000 reagents; below is an unselected part of those with a known target gene and a result. In the full data, 429 (2%) got an active call. 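Values are raw and not normalised between plates; calls rest on per-plate z-scores that were not deposited.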 A number with no mark means an inactive call. The numbers tell different reagents against one gene apart. A plus sign joins genes that one reagent is predicted to hit. No sequences are given here. Not given: the amount of reagent, the time to read-out.

Purpose: 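Identify essential fly genes by loss of cell viability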 (primary screen)
Cell system: Drosophila Kc and S2R+ cells
Reagents: long dsRNA against Drosophila genes
Detection: 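Raw, unnormalised count of remaining cells in each well; per-plate z-scores of cell number underlie the calls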
Direction: Kc cell number and S2R+ cell number: higher = more cells remaining
Active means: 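Counted as a hit if cell number falls by a z-score of at least 3 within its plate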

The first 3 entries, to show the layout:
no.	gene	reagent no.	Kc cell number, rep 1	Kc cell number, rep 2	S2R+ cell number, rep 1	S2R+ cell number, rep 2
1	Mdh2 (retired record)	1	1.35e6	1.36e6	1.06e6	1.11e6
2	CG42304 + Snup	1	1.37e6	1.43e6	1.09e6	1.15e6
3	CG42304 + Snup	2	1.55e6	1.52e6	8.73e5	9.89e5

Main list, from the start:
no.	gene	reagent no.	Kc cell number, rep 1	Kc cell number, rep 2	S2R+ cell number, rep 1	S2R+ cell number, rep 2
1	Mdh2 (retired record)	1	1.35e6	1.36e6	1.06e6	1.11e6
2	CG42304 + Snup	1	1.37e6	1.43e6	1.09e6	1.15e6
3	CG42304 + Snup	2	1.55e6	1.52e6	8.73e5	9.89e5
4	CG9775	1	1.71e6	1.62e6	1.40e6	1.49e6
5	BomT2	1	1.56e6	1.65e6	1.23e6	1.38e6
6	Hacd2	1	1.71e6	1.74e6	1.37e6	1.59e6
7	CG42675	1	1.56e6	1.62e6	1.39e6	1.44e6
8	Tet	1	1.27e6	1.46e6	9.21e5	1.03e6
9	cal1	1	1.47e6	1.62e6	1.09e6	1.17e6
10	CG8379	1	1.56e6	1.73e6	1.31e6	1.51e6
11	whe	1	1.55e6	1.55e6	1.07e6	1.18e6
12	niki	1	1.68e6	1.57e6	9.83e5	1.11e6
13	Tsp42Eo	1	1.44e6	1.52e6	1.18e6	1.26e6
14	Nup153	1	9.77e5 (active)	1.22e6	6.48e5	7.59e5
15	CG32262	1	1.28e6	1.43e6	1.26e6	1.18e6
16	path	1	1.52e6	1.55e6	1.17e6	1.34e6
17	Had1	1	1.52e6	1.55e6	1.15e6	1.28e6
18	TBC1D5	1	1.75e6	1.86e6	1.49e6	1.61e6
19	CG17287	1	1.72e6	1.84e6	1.38e6	1.51e6
20	PGRP-LA	1	1.62e6	1.66e6	1.17e6	1.36e6
21	PGRP-LA	2	1.64e6	1.65e6	1.12e6	1.35e6
22	CARPB	1	6.44e5		9.18e5	
23	CARPB	2	1.65e6	1.55e6	1.10e6	1.14e6
24	CG30053	1	1.61e6	1.63e6	1.31e6	1.48e6
